{"source": "the supplement of paper PMC9938546", "note": "Counter-ions that a name gives are not always drawn. Some of the results follow. Baselines shift from plate to plate; read single values as rough.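 HCT116-GFP is a human colorectal cancer cell line that carries a KRAS mutation, is microsatellite-unstable and always makes green fluorescent protein; the immune cells came from healthy donors. Live-cell imaging of the green signal stood in for cancer cell survival, and activated immune cells alone cut survival to about half.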"}
{"test_system": "HCT116-GFP", "test": "HCT116-GFP viability (GFP intensity) relative to untreated HCT116-GFP monoculture control, co-culture with activated PBMCs; higher = less cancer cell killing", "details": "culture: co-culture with anti-CD3/IL2 activated PBMCs 1:1; 10 µM; 72 h", "units": {"HCT116-GFP viability": "%"}}
{"compound": "C[C@@H]1NC(=O)NC1=O", "note": "[Methylhydantoin-5-(L)]", "HCT116-GFP viability": 57.9}
{"compound": "Cc1ccc(-c2ncc(Cl)cc2-c2ccc(S(C)(=O)=O)cc2)cn1", "note": "[Etoricoxib]", "HCT116-GFP viability": 38.4}
{"compound": "CC1CCc2c(N3CCC(O)CC3)c(F)cc3c(=O)c(C(=O)O)cn1c23", "note": "(stereo not given) [Nadifloxacin]", "HCT116-GFP viability": 51.3}
{"compound": "Cc1cc(=O)n(-c2ccccc2)n1C", "note": "[Antipyrine]", "HCT116-GFP viability": 52}
{"compound": "Clc1ccc(COC(Cn2ccnc2)c2ccc(Cl)cc2Cl)c(Cl)c1", "note": "(stereo not given) [Miconazole]", "HCT116-GFP viability": 36.4}
{"compound": "NC12CC3CC(CC(C3)C1)C2", "note": "[Adamantamine fumarate]", "HCT116-GFP viability": 34.6}
{"compound": "O=c1cc(-c2ccc(O)c(O)c2)oc2cc(O)cc(O)c12", "note": "[Luteolin]", "HCT116-GFP viability": 61.8}
{"compound": "CC(C)(C(=O)c1cccnc1)c1cccnc1", "note": "[Metyrapone]", "HCT116-GFP viability": 77.1}
{"compound": "CC(=O)N(O)CCCCCNC(=O)CCC(=O)N(O)CCCCCNC(=O)CCC(=O)N(O)CCCCCN", "note": "[Deferoxamine mesylate]", "HCT116-GFP viability": 19.9}
{"compound": "CC(C)(S)C(N)C(=O)O", "note": "(racemic) [D,L-Penicillamine]", "HCT116-GFP viability": 74.5}
{"compound": "CCN[C@H]1C[C@H](C)S(=O)(=O)c2sc(S(N)(=O)=O)cc21", "note": "[Dorzolamide hydrochloride]", "HCT116-GFP viability": 26.2}
{"compound": "CC(C)/N=c1\\cc2n(-c3ccc(Cl)cc3)c3ccccc3nc-2cc1Nc1ccc(Cl)cc1", "note": "[Clofazimine]", "HCT116-GFP viability": 1.91}
{"compound": "O=C1Cc2cc(CCN3CCN(c4nsc5ccccc45)CC3)c(Cl)cc2N1", "note": "[Ziprasidone  Hydrochloride]", "HCT116-GFP viability": 40.8}
{"compound": "C[C@@H]1[C@H](O)[C@@H](C)/C=C/C=C/C=C/C=C/C=C/C=C/C=C/[C@H](O[C@@H]2O[C@H](C)[C@@H](O)[C@H](N)[C@@H]2O)C[C@@H]2O[C@](O)(C[C@@H](O)C[C@@H](O)[C@H](O)CC[C@@H](O)C[C@@H](O)CC(=O)O[C@H]1C)C[C@H](O)[C@H]2C(=O)O", "note": "[Amphotericin B]", "HCT116-GFP viability": 42.4}
{"compound": "CO[C@@]1(NC(=O)CSCC#N)C(=O)N2C(C(=O)O)=C(CSc3nnnn3C)CS[C@@H]21", "note": "[Cefmetazole sodium salt]", "HCT116-GFP viability": 77.3}
{"compound": "CC(C)NC[C@H](O)COc1ccc(CC(N)=O)cc1", "note": "[(S)-(-)-Atenolol]", "HCT116-GFP viability": 43}
{"compound": "CCOC(=O)C(C)(C)Oc1ccc(Cl)cc1", "note": "[Clofibrate]", "HCT116-GFP viability": 20.4}
{"compound": "CN1CCc2cccc3c2[C@H]1Cc1ccc(O)c(O)c1-3", "note": "[R(-) Apomorphine hydrochloride hemihydrate]", "HCT116-GFP viability": 5.15}
{"compound": "CCC(NC(C)C)C(O)c1ccc(O)c(O)c1", "note": "(stereo not given) [Isoetharine mesylate salt]", "HCT116-GFP viability": 62.2}
{"compound": "CCC(Cc1c(I)cc(I)c(N)c1I)C(=O)O", "note": "(stereo not given) [Iopanoic acid]", "HCT116-GFP viability": 44.8}
